The text below walks through data of the odorant receptor screen of Mainland et al. (2015).

Molecules are shown by their SMILES. “And” between values parts separate entries of the source, which are not always exact repeats. Identical values can stand only once. The list shows a part of the results. Single wells; the ratio to wells without odorant was worked out here, and repeats agree poorly.

Among the test systems are OR5C1 clone 1425; OR5D14 clone 1230; OR5D18 N136D clone 1203; OR5F1 S294N clone 1148; OR5H1 clone 1471; OR5H2 clone 1055; OR5H6 clone 1056; OR5H6 clone 1470; OR5I1 clone 1146; OR5J2 clone 1241; OR5K1 clone 1502; OR5K2 clone 1068; OR5K3 clone 1514; OR5K4 I206V clone 1729; OR5L1 clone 1204; OR5L1 clone 1383; OR5L1 clone 1720.
What all share (experiment): odorant receptor activation (CRE luciferase / Renilla) (fold of no-odor wells); higher = more activation
Holding throughout (conditions): 100 µM

Test [1] concerns OR5H1 I153L/T181I clone 1473.
Test [2] deals with OR5H14 G64R/Y189C clone 1472.
Test [3] concerns OR5H2 E11Q/I225V/I281V clone 1466.

`CCOc1cc(C=O)ccc1O` [ethyl vanillin]: the odorant receptor activation in the test with OR5C1 clone 1425 was 1.2 and 1.1; with OR5D14 clone 1230 it was 1.25; in the test with OR5D18 N136D clone 1203 it was 1.22 and 1.2; in the test with OR5F1 S294N clone 1148, 1.25 and 1.27; in [1], 1.07 and 2.51 and 0.929; in the test on OR5H1 clone 1471, 0.972 and 2.07 and 1.25. Besides, the odorant receptor activation in test [2] is 1.45 and 1.28 and 1.26; in test [3], 1.25 and 2.32 and 1.19; with OR5H2 clone 1055, 1.11 and 1.02; with OR5H6 clone 1056, 1.16 and 1.17; in the test with OR5H6 clone 1470, 1.11 and 2.26 and 1.02; with OR5I1 clone 1146 it was 1.37 and 1.17. Moreover, the odorant receptor activation with OR5J2 clone 1241 is 0.934; with OR5K1 clone 1502, 1.31 and 2.58 and 1.47; with OR5K2 clone 1068, 1.48 and 1.04; with OR5K3 clone 1514 it was 1.58 and 1.97 and 1; with OR5K4 I206V clone 1729 it was 0.492; in the test on OR5L1 clone 1204, 1.6 and 1.09. Besides, the odorant receptor activation was 0.926 and 1.34 in the test on OR5L1 clone 1383; 0.573 in the test on OR5L1 clone 1720.
As to `CCCCOC(C)=O` [butyl acetate], the odorant receptor activation is 0.496 in the test with OR5C1 clone 1425; 1.25 in the test with OR5D14 clone 1230; 0.756 in the test on OR5D18 N136D clone 1203; 0.94 in the test with OR5F1 S294N clone 1148; 0.801 in [1]; 1.02 in the test on OR5H1 clone 1471. Also, the odorant receptor activation in test [2] stood at 0.86; in test [3], 0.957; in the test with OR5H2 clone 1055, 1.46; in the test on OR5H6 clone 1056 it was 1.06; in the test with OR5H6 clone 1470, 0.925; with OR5I1 clone 1146, 0.992. Moreover, the odorant receptor activation with OR5J2 clone 1241 is 1.05; with OR5K1 clone 1502, 1.01; in the test with OR5K2 clone 1068, 1.05; with OR5K3 clone 1514 it was 1.03; with OR5K4 I206V clone 1729 it was 1.14; in the test on OR5L1 clone 1204, 0.825. The odorant receptor activation was determined as 0.167 in the test with OR5L1 clone 1383 and 0.654 in the test on OR5L1 clone 1720.
Take `CCC(C)=O` [2-butanone]: the odorant receptor activation in the test with OR5C1 clone 1425 stood at 0.792; with OR5D14 clone 1230 it was 0.892; in the test with OR5D18 N136D clone 1203, 0.8; in the test with OR5F1 S294N clone 1148, 1.14; in [1] it was 0.944; in the test on OR5H1 clone 1471 it was 0.994. Moreover, the odorant receptor activation in [2] was 1.13; in test [3], 1.05; in the test with OR5H2 clone 1055, 2.56; in the test with OR5H6 clone 1056 it was 3.44; with OR5H6 clone 1470 it was 1.1; in the test with OR5I1 clone 1146, 1.19. Further, the odorant receptor activation in the test with OR5J2 clone 1241 is 0.849; with OR5K1 clone 1502, 1.04; in the test on OR5K2 clone 1068 it was 5.01; in the test on OR5K3 clone 1514, 0.857; in the test with OR5K4 I206V clone 1729, 0.969; in the test with OR5L1 clone 1204, 0.75. Besides, the values for the odorant receptor activation with OR5L1 clone 1383 and with OR5L1 clone 1720 were 0.774 and 1.07, respectively.
Consider `CS` [methanethiol], for which the odorant receptor activation with OR5C1 clone 1425 was 1.27; in the test on OR5D14 clone 1230 it was 0.932; with OR5D18 N136D clone 1203 it was 0.977; with OR5F1 S294N clone 1148, 0.88; in test [1], 0.725; with OR5H1 clone 1471 it was 0.917. For the same compound, the odorant receptor activation in [2] was 0.923; in test [3], 1; in the test with OR5H2 clone 1055 it was 1.09; in the test on OR5H6 clone 1056 it was 0.921; in the test with OR5H6 clone 1470 it was 0.673; in the test with OR5I1 clone 1146 it was 0.83. The odorant receptor activation is 0.841 in the test on OR5J2 clone 1241; 0.933 with OR5K1 clone 1502; 0.995 in the test on OR5K2 clone 1068; 0.747 in the test with OR5K3 clone 1514; 0.826 with OR5K4 I206V clone 1729; 0.998 with OR5L1 clone 1204. For the same compound, the figures for the odorant receptor activation in the test on OR5L1 clone 1383 and in the test with OR5L1 clone 1720 were 1.08 and 0.613, respectively.
